Source: the supplement of paper PMC10849652
The list shows a part of the results.

Protein sequences, listed by entry. Tags and fused reporters are not part of them. Lines headed by an entry give the natural chain unless they say otherwise; changes in a name come on top.
UniProt P20226, whole entry, looked up: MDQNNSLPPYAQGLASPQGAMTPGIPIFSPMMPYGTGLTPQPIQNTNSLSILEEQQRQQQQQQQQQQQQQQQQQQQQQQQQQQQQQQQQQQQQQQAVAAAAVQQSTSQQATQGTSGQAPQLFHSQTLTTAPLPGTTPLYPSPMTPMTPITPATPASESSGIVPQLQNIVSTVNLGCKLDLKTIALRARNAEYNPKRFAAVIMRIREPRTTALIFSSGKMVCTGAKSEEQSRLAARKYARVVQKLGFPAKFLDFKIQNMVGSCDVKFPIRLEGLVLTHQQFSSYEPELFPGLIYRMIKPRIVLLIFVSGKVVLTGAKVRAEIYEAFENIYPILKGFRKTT
UniProt Q9UHQ7: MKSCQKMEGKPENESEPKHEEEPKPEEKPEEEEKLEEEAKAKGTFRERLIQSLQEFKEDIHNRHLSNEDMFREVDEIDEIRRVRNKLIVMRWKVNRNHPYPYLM
UniProt P15884: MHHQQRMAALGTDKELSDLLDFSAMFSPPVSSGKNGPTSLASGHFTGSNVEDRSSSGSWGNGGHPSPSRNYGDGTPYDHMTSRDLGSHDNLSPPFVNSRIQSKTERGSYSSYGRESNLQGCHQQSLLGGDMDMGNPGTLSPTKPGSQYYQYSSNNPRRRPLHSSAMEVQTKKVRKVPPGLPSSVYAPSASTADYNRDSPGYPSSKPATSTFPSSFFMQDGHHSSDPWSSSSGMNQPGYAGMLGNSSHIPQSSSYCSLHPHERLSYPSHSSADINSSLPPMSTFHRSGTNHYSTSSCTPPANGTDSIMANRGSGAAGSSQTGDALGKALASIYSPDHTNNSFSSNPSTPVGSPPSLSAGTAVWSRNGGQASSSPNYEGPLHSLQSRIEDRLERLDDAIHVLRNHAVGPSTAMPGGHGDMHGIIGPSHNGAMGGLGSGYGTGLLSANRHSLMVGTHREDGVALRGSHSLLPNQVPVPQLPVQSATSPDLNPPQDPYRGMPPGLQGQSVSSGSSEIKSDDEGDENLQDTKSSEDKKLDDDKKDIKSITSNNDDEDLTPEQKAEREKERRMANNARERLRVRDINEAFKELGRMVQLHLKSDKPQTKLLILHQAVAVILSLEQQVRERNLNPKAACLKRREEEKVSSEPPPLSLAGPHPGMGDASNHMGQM
UniProt Q9UK61: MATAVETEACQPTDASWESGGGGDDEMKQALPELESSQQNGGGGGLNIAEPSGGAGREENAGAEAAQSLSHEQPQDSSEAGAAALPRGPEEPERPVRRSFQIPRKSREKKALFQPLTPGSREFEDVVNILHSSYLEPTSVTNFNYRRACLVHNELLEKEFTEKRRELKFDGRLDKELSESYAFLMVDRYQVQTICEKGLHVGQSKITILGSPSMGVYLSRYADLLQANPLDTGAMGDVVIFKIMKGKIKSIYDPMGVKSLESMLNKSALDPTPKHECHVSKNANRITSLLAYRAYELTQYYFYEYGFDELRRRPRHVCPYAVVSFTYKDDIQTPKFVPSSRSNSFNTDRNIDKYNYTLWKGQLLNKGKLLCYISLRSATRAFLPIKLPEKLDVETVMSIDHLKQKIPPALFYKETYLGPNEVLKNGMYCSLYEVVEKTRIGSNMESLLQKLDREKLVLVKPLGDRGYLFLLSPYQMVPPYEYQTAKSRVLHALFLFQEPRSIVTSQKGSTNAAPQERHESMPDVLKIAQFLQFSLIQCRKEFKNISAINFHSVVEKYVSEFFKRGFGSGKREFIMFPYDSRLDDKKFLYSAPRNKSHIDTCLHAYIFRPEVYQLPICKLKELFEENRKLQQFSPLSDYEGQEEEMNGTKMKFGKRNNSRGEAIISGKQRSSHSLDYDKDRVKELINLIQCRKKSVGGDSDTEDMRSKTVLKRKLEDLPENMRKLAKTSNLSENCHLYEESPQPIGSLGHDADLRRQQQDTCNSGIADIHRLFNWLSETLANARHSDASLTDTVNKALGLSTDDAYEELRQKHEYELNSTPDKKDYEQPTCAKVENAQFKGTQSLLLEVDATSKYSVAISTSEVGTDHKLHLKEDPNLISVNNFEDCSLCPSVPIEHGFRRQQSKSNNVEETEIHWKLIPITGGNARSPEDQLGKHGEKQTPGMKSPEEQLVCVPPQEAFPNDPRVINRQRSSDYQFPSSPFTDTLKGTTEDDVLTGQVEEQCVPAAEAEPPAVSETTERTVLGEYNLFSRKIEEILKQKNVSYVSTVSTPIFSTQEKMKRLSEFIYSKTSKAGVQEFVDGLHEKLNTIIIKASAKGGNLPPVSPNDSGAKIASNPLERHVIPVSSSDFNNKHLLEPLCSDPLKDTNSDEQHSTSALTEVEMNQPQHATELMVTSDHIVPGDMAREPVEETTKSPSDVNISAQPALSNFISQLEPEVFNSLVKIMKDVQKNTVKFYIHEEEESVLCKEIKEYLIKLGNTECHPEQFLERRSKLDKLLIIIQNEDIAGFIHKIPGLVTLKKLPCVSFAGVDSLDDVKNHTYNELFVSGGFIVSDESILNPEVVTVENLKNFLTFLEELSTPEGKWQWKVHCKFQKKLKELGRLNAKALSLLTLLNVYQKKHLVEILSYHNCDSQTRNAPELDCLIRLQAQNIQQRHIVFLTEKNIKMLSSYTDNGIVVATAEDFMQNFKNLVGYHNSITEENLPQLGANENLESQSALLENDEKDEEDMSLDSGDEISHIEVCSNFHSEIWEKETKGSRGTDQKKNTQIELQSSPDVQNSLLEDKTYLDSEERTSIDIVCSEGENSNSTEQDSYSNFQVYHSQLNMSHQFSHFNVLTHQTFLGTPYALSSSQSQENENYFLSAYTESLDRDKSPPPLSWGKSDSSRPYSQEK
UniProt Q9BXI6: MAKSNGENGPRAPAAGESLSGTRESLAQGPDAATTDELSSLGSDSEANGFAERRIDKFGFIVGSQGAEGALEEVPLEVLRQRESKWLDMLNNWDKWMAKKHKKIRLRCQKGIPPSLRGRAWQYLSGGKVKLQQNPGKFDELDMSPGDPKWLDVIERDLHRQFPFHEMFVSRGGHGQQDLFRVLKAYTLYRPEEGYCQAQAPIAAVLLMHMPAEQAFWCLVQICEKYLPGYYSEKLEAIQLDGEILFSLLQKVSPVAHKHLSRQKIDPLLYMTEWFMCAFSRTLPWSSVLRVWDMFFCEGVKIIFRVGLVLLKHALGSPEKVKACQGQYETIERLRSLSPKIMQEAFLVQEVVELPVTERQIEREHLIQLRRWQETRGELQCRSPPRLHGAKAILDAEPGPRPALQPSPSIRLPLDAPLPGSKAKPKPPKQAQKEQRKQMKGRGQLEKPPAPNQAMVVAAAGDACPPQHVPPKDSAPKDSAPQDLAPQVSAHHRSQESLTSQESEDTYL
UniProt P20061: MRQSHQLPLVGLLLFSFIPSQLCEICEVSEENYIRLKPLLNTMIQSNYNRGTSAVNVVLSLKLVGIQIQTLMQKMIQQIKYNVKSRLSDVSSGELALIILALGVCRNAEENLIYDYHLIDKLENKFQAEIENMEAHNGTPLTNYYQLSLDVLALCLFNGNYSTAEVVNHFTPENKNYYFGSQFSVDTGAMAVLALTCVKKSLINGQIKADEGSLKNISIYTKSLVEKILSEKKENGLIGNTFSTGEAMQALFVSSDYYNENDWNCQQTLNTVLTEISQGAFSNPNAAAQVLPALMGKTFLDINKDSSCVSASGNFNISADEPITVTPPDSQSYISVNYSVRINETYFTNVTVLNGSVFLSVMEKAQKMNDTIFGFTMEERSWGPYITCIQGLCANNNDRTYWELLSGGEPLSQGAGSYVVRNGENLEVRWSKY
UniProt O60347: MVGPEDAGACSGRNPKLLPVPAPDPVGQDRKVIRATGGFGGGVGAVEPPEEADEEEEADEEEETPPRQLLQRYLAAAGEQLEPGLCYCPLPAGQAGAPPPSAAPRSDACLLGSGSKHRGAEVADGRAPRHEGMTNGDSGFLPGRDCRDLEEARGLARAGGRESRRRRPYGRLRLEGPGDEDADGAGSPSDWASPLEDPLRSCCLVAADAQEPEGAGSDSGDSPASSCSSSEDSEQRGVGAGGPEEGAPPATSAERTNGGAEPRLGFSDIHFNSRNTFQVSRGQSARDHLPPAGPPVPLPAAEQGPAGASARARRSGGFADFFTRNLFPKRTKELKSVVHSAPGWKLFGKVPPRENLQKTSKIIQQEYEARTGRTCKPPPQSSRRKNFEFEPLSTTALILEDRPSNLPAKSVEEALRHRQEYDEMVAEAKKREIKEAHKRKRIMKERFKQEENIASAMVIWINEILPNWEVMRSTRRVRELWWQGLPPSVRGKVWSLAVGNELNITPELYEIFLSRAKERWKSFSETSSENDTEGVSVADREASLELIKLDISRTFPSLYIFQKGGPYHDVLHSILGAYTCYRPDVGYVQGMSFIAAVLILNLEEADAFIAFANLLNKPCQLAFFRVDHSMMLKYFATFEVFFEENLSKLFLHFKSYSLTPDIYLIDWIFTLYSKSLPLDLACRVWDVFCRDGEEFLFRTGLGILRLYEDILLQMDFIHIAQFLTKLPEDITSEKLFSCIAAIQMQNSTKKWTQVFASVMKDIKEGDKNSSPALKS
UniProt Q6PIY7: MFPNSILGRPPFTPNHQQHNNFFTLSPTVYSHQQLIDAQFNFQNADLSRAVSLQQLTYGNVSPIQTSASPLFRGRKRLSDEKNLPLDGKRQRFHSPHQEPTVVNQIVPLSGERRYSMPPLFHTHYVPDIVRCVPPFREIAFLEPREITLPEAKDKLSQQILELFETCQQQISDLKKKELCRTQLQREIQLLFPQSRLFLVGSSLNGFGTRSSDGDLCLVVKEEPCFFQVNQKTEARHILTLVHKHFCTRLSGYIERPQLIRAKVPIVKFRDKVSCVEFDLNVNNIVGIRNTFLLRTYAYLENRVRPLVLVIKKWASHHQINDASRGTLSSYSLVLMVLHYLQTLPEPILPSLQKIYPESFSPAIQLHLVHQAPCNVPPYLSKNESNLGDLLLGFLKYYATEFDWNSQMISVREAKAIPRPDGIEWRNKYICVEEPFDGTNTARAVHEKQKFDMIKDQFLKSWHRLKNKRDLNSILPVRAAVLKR
UniProt Q13428: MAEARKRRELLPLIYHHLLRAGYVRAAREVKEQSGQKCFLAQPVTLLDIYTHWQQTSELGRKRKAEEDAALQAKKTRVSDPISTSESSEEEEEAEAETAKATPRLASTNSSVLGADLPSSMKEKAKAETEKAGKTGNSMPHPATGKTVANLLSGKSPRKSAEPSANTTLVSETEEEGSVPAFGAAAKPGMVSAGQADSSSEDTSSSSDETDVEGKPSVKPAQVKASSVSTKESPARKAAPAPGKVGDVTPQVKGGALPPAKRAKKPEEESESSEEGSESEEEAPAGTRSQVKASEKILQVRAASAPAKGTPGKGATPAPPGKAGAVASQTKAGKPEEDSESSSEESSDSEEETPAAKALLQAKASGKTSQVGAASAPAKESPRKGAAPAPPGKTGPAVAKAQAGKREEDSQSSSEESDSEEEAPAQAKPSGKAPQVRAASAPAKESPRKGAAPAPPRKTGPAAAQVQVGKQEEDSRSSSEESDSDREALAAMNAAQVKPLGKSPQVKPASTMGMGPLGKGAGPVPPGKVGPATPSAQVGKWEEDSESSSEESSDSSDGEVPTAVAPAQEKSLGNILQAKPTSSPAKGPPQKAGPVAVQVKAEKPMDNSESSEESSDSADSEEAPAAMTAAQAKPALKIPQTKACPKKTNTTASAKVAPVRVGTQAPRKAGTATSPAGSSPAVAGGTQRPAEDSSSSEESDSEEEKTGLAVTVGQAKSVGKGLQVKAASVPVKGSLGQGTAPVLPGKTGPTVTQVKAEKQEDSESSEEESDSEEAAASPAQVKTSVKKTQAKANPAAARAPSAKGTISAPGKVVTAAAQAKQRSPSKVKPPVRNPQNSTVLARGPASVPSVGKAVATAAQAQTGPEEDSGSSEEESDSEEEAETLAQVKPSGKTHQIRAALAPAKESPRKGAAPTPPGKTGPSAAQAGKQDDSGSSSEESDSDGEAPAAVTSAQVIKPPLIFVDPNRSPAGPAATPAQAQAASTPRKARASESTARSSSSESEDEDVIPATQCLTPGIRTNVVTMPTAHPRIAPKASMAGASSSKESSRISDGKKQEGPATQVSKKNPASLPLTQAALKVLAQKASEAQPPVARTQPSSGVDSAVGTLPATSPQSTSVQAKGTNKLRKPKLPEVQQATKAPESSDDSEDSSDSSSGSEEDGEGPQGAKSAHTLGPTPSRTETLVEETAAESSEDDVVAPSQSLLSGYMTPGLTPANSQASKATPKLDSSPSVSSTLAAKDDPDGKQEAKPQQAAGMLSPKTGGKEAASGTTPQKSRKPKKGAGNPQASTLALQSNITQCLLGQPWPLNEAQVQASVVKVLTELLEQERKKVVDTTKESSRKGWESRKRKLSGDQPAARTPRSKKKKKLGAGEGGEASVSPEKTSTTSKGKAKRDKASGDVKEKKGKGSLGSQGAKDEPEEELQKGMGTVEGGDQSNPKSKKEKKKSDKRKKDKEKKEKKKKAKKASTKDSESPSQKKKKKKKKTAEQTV

Experiments:
Assay in all cases: log2 fold change, soluble protein after heating vs DMSO (PISA); higher = thermal stabilisation; K562 lysate, 10 uM; active = over 0.2 and 3.5 SD of the protein, either way, in both replicates (recomputed)
[1] = compound: C1=CC=C(C=C1)[C@H](COC2=CC3=C(C=C2)NC(=O)N3)NC(=O)C4=CC=CN(C4=O)CC5=CC(=C(C=C5)F)F
In short: (§1)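 Pellets of K562 cells were dounce-homogenised in PBS pH 7.4 with 1 mM MgCl2, and the crude extract was held at 1 mg/mL protein for a 30 min treatment with 10 μM compound. Aliquots were heated for 3 min over 48°C-58°C and pooled before NP-40 was added to 0.5% at 4°C. The supernatant from 21,000xg for 90 min was quantified by TMTpro 16plex LC-MS/MS with channel sums equalised. Values are reported from duplicates as log-two fold change in thermal stability relative to solvent controls.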

[2] = compound: CC1=C(SC2=C1C(=N[C@H](C3=NN=C(N32)C)CC(=O)N)C4=CC=C(C=C4)Cl)C
In short: as §1

[3] = compound: Cc1sc2c(c1C)C(c1ccc(Cl)cc1)=N[C@@H](CC(=O)OC(C)(C)C)c1nnc(C)n1-2
In short: as §1

[4] = compound: c1ccc([C@@H]2C[C@H]2NC2CCNCC2)cc1
In short: as §1

[5] = compound: CC1=C2C(=CC=C1)N=C(N(C2=O)C3=CC=CC=C3C)CN4C=NC5=C(N=CN=C54)N
In short: as §1

TBP (UniProt P20226) was tested, and the log2 fold change [1] was inactive: 0.02, the log2 fold change [2] was inactive: 0.049 and the log2 fold change [3] was inactive: -0.151. For the same target, the log2 fold change [4] was inactive: -0.089.
TGDS (UniProt O95455) was tested, and the log2 fold change [1] was inactive: -0.01, the log2 fold change [2] was inactive: 0.14 and the log2 fold change [4] was inactive: -0.022.
In the case of TCEAL9 (UniProt Q9UHQ7), the log2 fold change [5] is reported as inactive: -0.168.
In the case of TCF4 (UniProt P15884), the log2 fold change [3] is reported as inactive: 0.047 and the log2 fold change [4] is reported as inactive: 0.091.
In the case of TAGLN3 (UniProt Q9UI15), the log2 fold change [5] is reported as inactive: 0.009 and the log2 fold change [4] is reported as inactive: -0.345.
With TARDBP (UniProt K7EN94) the log2 fold change [5] was inactive: 0.319.
With TECPR1 isoform 4 (UniProt Q7Z6L1) the log2 fold change [1] was inactive: -0.236, the log2 fold change [2] was inactive: -0.057 and the log2 fold change [3] was inactive: -0.217. The log2 fold change [4] was inactive: 0.009.
With TASOR (UniProt Q9UK61) the log2 fold change [5] was inactive: 0.033 and the log2 fold change [3] was inactive: -0.028.
For TBC1D10A (UniProt Q9BXI6), the log2 fold change [1] was inactive: -0.034, the log2 fold change [2] was inactive: 0.07 and the log2 fold change [3] was inactive: 0.074. For the same target, the log2 fold change [4] was inactive: -0.005.
In the case of TAZ (UniProt Q16635), the log2 fold change [4] is reported as inactive: -0.013.
With TCN1 (UniProt P20061) the log2 fold change [1] was inactive: 0.291, the log2 fold change [2] was inactive: -0.279 and the log2 fold change [4] was inactive: -0.045.
With TCF3 (UniProt X6REB3) the log2 fold change [5] was inactive: -0.031 and the log2 fold change [4] was inactive: -0.25.
TBC1D12 (UniProt O60347) was tested, and the log2 fold change [5] was inactive: 0.171, the log2 fold change [3] was inactive: -0.063 and the log2 fold change [4] was inactive: 0.069.
In the case of TENT2 (UniProt Q6PIY7), the log2 fold change [3] is reported as inactive: 0.316.
TCOF1 isoform 6 (UniProt Q13428) was tested, and the log2 fold change [3] was inactive: 0.096.
